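Genome-wide siRNA knockdown in TC32 Ewing sarcoma cells, comparing luciferase light from an NR0B1-promoter reporter with a CMV-promoter reporter 48 hours after transfection.
Each siRNA was applied at 20 nM.
A z-score of the log NR0B1-over-CMV signal, less the median of siRNAs with the same seed; more negative means a stronger specific loss of the NR0B1 reporter.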

This is part of the screen; most of the strongest results are not listed here.
Sequences are the guide (antisense) strand, without overhang.

| siRNA | target gene | seed-corrected z-score |
|---|---|---|
| `UUACUCUCAUGGAUCCAGG` | C7orf76 | -0.05342 |
| `UUUUAUUAAUCCUGGGUUC` | EHF | -0.312 |
| `UGAUCUCAUUGGUUAGUGC` | UNC5CL | -0.4188 |
| `UAACAUGUGAGGGUAUUUC` | LSM2 | -0.366 |
| `AAUCUGGUCGUCCUUAUCC` | HPCAL4 | -0.3687 |
| `UGAUUAUGUAUUAUUACCU` | BAGE | 0.4632 |
| `UUCGAGUCAGAGUAUUCCG` | GLT8D2 | 0.4957 |
| `UUCACGUAAUCAUCAAUGG` | LAT | 0.5194 |
| `UCAUAUGUGAGGUUGGUCU` | TRIM62 | -0.639 |
| `UUCUUUAGGAGGAAGAAUG` | PDCL2 | 1.89 |
| `UAGGAGAUCGGGUGAGUGG` | GGTLC2 | 0.7626 |
| `AUAGAGUAUAGGCAUAAGC` | CDC27P6 | -0.3842 |
| `UUAUCUUCUAAUACCGUAG` | TAF1B | 1.194 |
| `AACUCUUCUAUGUUGGAUG` | CACNA1I | 0.5498 |
| `UCUGUAUCAUGAAGUAGCC` | GABRA6 | -0.6885 |
| `UUUCUCACCAUUUCGAAUC` | ATP1A1 | 0.09496 |
| `UUCUCGAUCAUUAGCUUCC` | EFCAB7 | -0.3996 |
| `UCACGGCAUAUCCUAGUCC` | MYH15 | -1.154 |
| `AGAAUACAAGGUGCUGUUC` | ATF6B | 0.4572 |
| `UUCUUGUUCAGAUCUGACG` | CHST4 | -0.3247 |
| `UUUCCAACUAUUUUGCCUC` | PPM1E | -0.4455 |
| `UCCGUAGCCGCAUAUUUCC` | NADSYN1 | -0.4523 |
| `UUUUGGUCCACAGAUCUUC` | KLF6 | -0.4806 |
| `UCCUCGAUCAUGUAACUUC` | CFAP43 | -0.08277 |
| `UCAAGUUUUACGACCCGGC` | APMAP | 0.1757 |
| `AAUAAGAAAAUAUCGUAGC` | TRDMT1 | -0.0351 |
| `UGCAUUUCCGCUUUUCCAC` | IAPP | -1.281 |
| `UAGAGCAUGAGAAUCCAGG` | HHAT | -0.3816 |
| `UCUGCUCUCCGGAAUGACA` | HPX-2 | -0.8295 |
| `UUUGGAGAAGGAGUGGACG` | MEST | -0.1161 |
| `AAUAUCUAAAGUGAACUUC` | SPINT4 | -0.3132 |
| `UAAUCGUCAAGCUUUUCCC` | RNF139 | -0.8023 |
| `UAUUCGAUCACAAAAUCUG` | PDILT | -0.02998 |
| `UGCUAUACCUUCUAUAUAC` | GSTA1 | -0.2609 |
| `UGUUUGACAUUGGUGAAUC` | GLCE | -0.05553 |
| `UGUAGAUUUACAGAUGUGC` | BID | -0.4053 |
| `AAGUUUACAAAUCACUACU` | DUSP22 | -0.07612 |
| `UGAAGUAUGAGUAAGACCG` | BTBD9 | -0.5298 |
| `UCACGUAUAUUAUAAGCUC` | OR2AG2 | -0.1532 |
| `AAAGUGCAGGAGAAGUAGC` | KRT81 | 0.4543 |
| `UUAGUGUAAGGUGUUGAGG` | SMARCC2 | 1.511 |
| `UGUUGGUUCAUCAAAACCU` | HN1 | -0.3693 |
| `AAAGGAUUGAGAGCGGAAC` | TNS1 | 0.9483 |
| `AAUGUAGGCAUUGCCCUCC` | LRIT2 | -1.61 |
| `UUGUCUACCUAGAUCAUCC` | ANAPC15 | 1.25 |
| `UCAGAAUGACGUGUCCACC` | MTG2 | 0.7774 |
| `UCCAUGUCUACAAUCCACU` | UBE2W | -0.6615 |
| `UCACUCUUUGGACUAAUCC` | FZD6 | -0.5243 |
| `UCCAUUUUCCGAAUACAUC` | ZDHHC7 | 0.4247 |
| `UUUUUAUCGAUUGUACACU` | ESR2 | 0.4066 |
| `AAGGUUGAGGAUUUCCUUC` | TCEAL8 | -0.1784 |
| `UCUGGUUCUGGAAGUAGUC` | SFTPB | -1.05 |
| `UUAUUUAUCAGAUUACUGG` | COX7A2 | -1.533 |
| `AUAGUAUAUGCAGUCGGCC` | VCPKMT | 0.5928 |
| `UUUGGGAUAGUAAUCGUCC` | MROH3P | -1.744 |
| `UCCUGAACAAGUGAGGUCC` | GFRAL | 0.4476 |
| `AACCAUAUCUGGUACUUUC` | STPG2 | -0.01668 |
| `ACUGGGACCACUCAAAAGC` | LOC728445 | 0.1375 |
| `UUUGAGUUGACCUUGAAGC` | ACSBG2 | 0.3989 |
| `AGUAUUAUUAGGAUCAAUG` | SLC9B1 | 0.9917 |
| `UGAAUAUCUUGUCUAUCUG` | ARHGEF7 | -0.0165 |
| `UAUGGUUCCACAAGAGUCA` | SSMEM1 | -0.2813 |
| `UUCUGAAUAGACGACUUGC` | RRAGD | 0.2354 |
| `AUAUAAAUAAGAGCGAUUC` | TMEM184A | 0.1981 |
| `UAUCGAACUCCUUGUAUGC` | ARHGAP8 | 0.4498 |
| `UAUUCGUUCCAGAUGUUGG` | KCNT2 | 1.243 |
| `UUCUUGAUUCGGAUGAUGC` | CLCN2 | -0.4942 |
| `UACUGUAAUUUUUAGAGGA` | TUBB2A | 0.1736 |
| `AUUGCAUCUUUCAAUUUUC` | FABP5P10 | 0.07912 |
| `UGAUUCACAAGUGACCUCC` | GLS2 | 0.1679 |
| `UUAGUUGCGAAUCCCAUCC` | SPTLC3 | -1.446 |
| `UUUAUCACCAGUUUCCUGU` | SLC16A8 | 0.2296 |
| `UUGUUUAAAGUCCUCAUUG` | HTR1B | 0.868 |
| `UGAGCAGACGCGACGAUGU` | TMEM147 | 2.313 |
| `AAGGAAACUGGUUAUAUCC` | CYP2U1 | 0.1529 |
| `UUGCGGAUUCUGUUGCUGC` | PRRC2C | -0.5027 |
| `UGAUGGCAGCGUAUUCUGC` | C9orf16 | -0.1352 |
| `UAGAAUACCACAGGGAGUG` | TBC1D26 | -0.0007858 |
| `UACCUUUAUUCCUAGAACC` | MROH1 | -0.7874 |

Some entries from above, unchanged:

siRNA	target gene	seed-corrected z-score
UAGAAUACCACAGGGAGUG	TBC1D26	-0.0007858
UCUGCUCUCCGGAAUGACA	HPX-2	-0.8295
UUGUUUAAAGUCCUCAUUG	HTR1B	0.868
UGAUUCACAAGUGACCUCC	GLS2	0.1679
UUUCCAACUAUUUUGCCUC	PPM1E	-0.4455
UCUGUAUCAUGAAGUAGCC	GABRA6	-0.6885
AUAGUAUAUGCAGUCGGCC	VCPKMT	0.5928

Source: PubChem BioAssay AID1159506 (NCATS, 2015).